Measurements taken from patent US20230270112A1, “A METHOD OF DI[…] GASEOUS ENVIRONMENT, A LIQUID, OR A SOLID SURFACE” (priority 2020, published 2023).
Some entries share one result that the patent states for a list of compounds.

Test system: respiratory syncytial virus (RSV)
Experiment: Titration by TCID50 assay
Assay type: cell-based
Settings: highest concentrations; FIG. 3b

Substance: cucurbit[7]uril
- reduction in viral titre: 2-3 log
